Some of these results come from one statement about several compounds together. For some of these results: For at least one compound, name, drawing or mass did not settle the structure.
Each compound was assayed on adult C. felis fleas (assay: Ingestion activity against adult Ctenocephalides felis, membrane feeding, motility (Example 6)). Details: bovine blood via artificial membrane, 48h post treatment, read-out: EC50 (ingestion activity, % motility reduction).
Experimental: Compounds of formulae (I), (Ia) and/or (Ib) dissolved in 100% DMSO are added to bovine blood and offered via an artificial membrane feeding system to adult C. felis fleas. The motility of fleas is then visually inspected 48h post treatment. Efficacy is expressed in % motility reduction compared to controls containing blood treated with DMSO only. A dose response series is implemented to determine EC50 values.

SMILES | EC50 [µM]
CCS(=N)(=O)c1cc(-c2noc(C3(F)CC3)n2)cnc1-c1nc2cc(C(F)(F)C(F)(F)F)cnc2n1C (stereo not shown) [Compound 5] | < 1
CCS(=N)(=O)c1cc(-n2cc(C3(C#N)CC3)cn2)cnc1-c1nc2cc(C(F)(F)C(F)(F)F)nnc2n1C (stereo not shown) [Compound 33] | < 1
CCS(=N)(=O)c1cc(-c2ccc(C3(C#N)CC3)cc2)cnc1-n1cc2cnc(C(F)(F)F)cc2n1 (stereo not shown) [Compound 35] | < 1
CCS(=N)(=O)c1cc(-c2noc(C3CC3)n2)cnc1-c1nc2cc(C(F)(F)C(F)(F)F)nnc2n1C (stereo not shown) [Compound 8] | < 1
CCS(=N)(=O)c1cc(-n2cc(C3CC3)nn2)cnc1-c1nc2cc(C(F)(F)C(F)(F)F)cnc2n1C (stereo not shown) [Compound 28] | < 1

These compounds were tested on adult C. felis fleas (assay: Ingestion activity against adult Ctenocephalides felis, membrane feeding, alternative method (Examples 7 and 13)). Details: bovine blood with sodium heparin, 48 hours post-treatment, read-out: EC50 (ingestion activity, percentage mortality, alternative method).
Experimental: Selected compounds of formula (I), (Ia) and (Ib) and compound “125” of WO 2021/033141 dissolved in 100% DMSO are diluted in bovine blood with sodium heparin anti-coagulant. The resulting formulation is offered via an artificial membrane feeding system to approximately 15 adult C. felis fleas previously dispensed into 24-well plates. The plates are then incubated in a double-chambered device. Visual evaluation for mortality is performed at 48 hours post-treatment. Compound efficacy at a given dose is expressed as percentage mortality and determined by normalization to positive and negative controls. A dose response series is implemented to determine EC50 values.
Compounds of formulae (I), (Ia) and/or (Ib) dissolved in 100% DMSO are diluted in bovine blood with sodium heparin anti-coagulant. The resulting formulation is offered via an artificial membrane feeding system to approximately 15 adult C. felis fleas previously dispensed into 24-well plates. The plates are then incubated in a double-chambered device. Visual evaluation for mortality is performed at 48 hours post-treatment. Compound efficacy at a given dose is expressed as percentage mortality and determined by normalization to positive and negative controls. A dose response series is implemented to determine EC50 values.

SMILES | EC50 [µM]
CC[SH](=N)(O)c1cc(-c2noc(C3CC3)n2)cnc1-c1nc2cc(C(F)(F)C(F)(F)F)nnc2n1C [Compound 8a] | < 1
CC[SH](=N)(O)c1cc(-c2noc(C3CC3)n2)cnc1-c1cc2cc(C(F)(F)C(F)(F)F)cnc2n1C [Compound 6a] | < 1
